Results deposited as PubChem BioAssay AID504744 (Drosophila RNAi Screening Center, 2011).

- Assay: 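Find genes whose loss alters insulin-driven dAkt phosphorylation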 (primary screen)
- Cells: Drosophila Kc167 cells
- Reagents: long dsRNA against Drosophila genes, 250 ng dsRNA per well of a 384-well plate
- Duration: 3 days of knock-down, then overnight serum-free starvation before stimulation
- Treatment: bovine insulin at 387 nM for 10 minutes after 12 h without serum
- Measurement: 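Per-well phospho-dAkt level from an in-cell fluorescent antibody stain, divided by a DNA-dye signal; log2 residuals turned into z-scores that take cell number into account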
- Call rule: 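Hit in the insulin screen when the two-replicate mean z-score is more extreme than plus or minus 2.5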
The screen tested about 23,000 reagents; below is an unselected part of those that have a named target and a result. Of all reagents, 98 (0.43%) got an active call. 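Only hit calls are given; the phospho-dAkt signals, z-scores and hit direction were not deposited.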 Reagents against one gene are numbered here. Names joined by + are all predicted targets of the reagent. No sequences are given here.

| target gene | reagent | outcome |
| --- | --- | --- |
| vls | 1 | inactive |
| bon | 1 | inactive |
| CG14965 | 1 | inactive |
| CG8320 + ATPCL | 1 | inactive |
| CG34451 | 1 | inactive |
| CG34451 | 2 | inactive |
| CG4328 | 1 | inactive |
| MFS3 | 1 | inactive |
| Gr59c | 1 | inactive |
| CG33467 | 1 | inactive |
| CG33467 | 2 | inactive |
| mute | 1 | inactive |
| mute | 2 | inactive |
| CG4456 + Hsp22 | 1 | inactive |
| CG4456 + Hsp22 | 2 | inactive |
| boil | 1 | inactive |
| mIF3 | 1 | inactive |
| CG14684 | 1 | inactive |
| Naxe | 1 | inactive |
| Fcp3C | 1 | inactive |
| Myo61F | 1 | inactive |
| HUWE1 | 1 | inactive |
| Mlc1 | 1 | inactive |
| Cnep1r1 | 1 | inactive |
| Pal2 | 1 | inactive |
| CG14034 | 1 | inactive |
| CG13084 | 1 | inactive |
| CG32982 | 1 | inactive |
| CG32982 | 2 | inactive |
| CG32982 | 3 | inactive |
| CG32982 | 4 | inactive |
| CG32982 | 5 | inactive |
| Prosbeta1 | 1 | active |
| CG42540 | 1 | inactive |
| CG42540 | 2 | inactive |
| CG42540 | 3 | inactive |
| Prp40 | 1 | inactive |
| CG17760 | 1 | inactive |
| Josd | 1 | inactive |
| CG14324 | 1 | inactive |
| gnu | 1 | inactive |
| Polr3D | 1 | active |
| Alp8 | 1 | inactive |
| side-IV | 1 | inactive |
| RluA-2 | 1 | inactive |
| Dd | 1 | inactive |
| CG32547 | 1 | inactive |
| CG32547 | 2 | inactive |
| CG32547 | 3 | inactive |
| CG32547 | 4 | inactive |
| RhoGAP15B | 1 | inactive |
| RhoGAP15B | 2 | inactive |
| CG6462 | 1 | inactive |
| Orct | 1 | inactive |
| CG10194 | 1 | inactive |
| CG17186 | 1 | inactive |
| CG18213 | 1 | inactive |
| U3-55K | 1 | inactive |
| Setd3 | 1 | inactive |
| Setd3 | 2 | inactive |
| CG15705 | 1 | inactive |
| CPT2 | 1 | inactive |
| spri | 1 | inactive |
| spri | 2 | inactive |
| spri | 3 | inactive |
| spri | 4 | inactive |
| spri | 5 | inactive |
| spri | 6 | inactive |
| spri | 7 | inactive |
| Trm7-34 | 1 | inactive |
| Art2 | 1 | inactive |
| inaF-A | 1 | inactive |
| CG9386 | 1 | inactive |
| Myt1 | 1 | inactive |
| ome | 1 | inactive |
| ome | 2 | inactive |
| ome | 3 | inactive |
| Syx17 | 1 | inactive |
| CG42496 + Ppcdc | 1 | inactive |
| Alp10 | 1 | inactive |
| CG4009 | 1 | inactive |
| DnaJ-1 | 1 | active |
| CG34195 | 1 | inactive |
| Acyp2 | 1 | inactive |
| NimB1 | 1 | inactive |
| mRpS9 | 1 | inactive |
| mRpS9 | 2 | inactive |
| CG7737 | 1 | inactive |
| eIF2Balpha | 1 | inactive |
| lms | 1 | inactive |
| CG33552 | 1 | inactive |
| Nup160 + RfC38 | 1 | inactive |
| CG3280 (retired record) | 1 | inactive |
| BORCS5 | 1 | inactive |
| Coq6 | 1 | inactive |
| CG14269 | 1 | inactive |
| CG12935 | 1 | inactive |
| DIP-epsilon | 1 | inactive |
| DIP-epsilon | 2 | inactive |
| Caf1-105 | 1 | inactive |
| CG8620 | 1 | inactive |
| drpr | 1 | inactive |
| drpr | 2 | inactive |
| CG12768 | 1 | inactive |
| Arl6IP1 | 1 | inactive |
| CG3065 | 1 | inactive |
| CG13193 | 1 | inactive |
| CecA1 | 1 | inactive |
| Gr22f | 1 | inactive |
| lola | 1 | inactive |
| lola | 2 | inactive |
| lola | 3 | inactive |
| lola | 4 | inactive |
| lola | 5 | inactive |
| lola | 6 | inactive |
| lola | 7 | inactive |
| lola | 8 | inactive |
| lola | 9 | inactive |
| lola | 10 | inactive |
| lola | 11 | inactive |
| lola | 12 | inactive |
| CG14107 | 1 | inactive |
| hzg | 1 | inactive |
| CG31106 | 1 | inactive |
| mEFTu2 | 1 | inactive |
| CG31922 | 1 | inactive |
| bigmax | 1 | inactive |
| east | 1 | inactive |
| sro | 1 | inactive |
| Liprin-gamma | 1 | inactive |
| Gr43a | 1 | inactive |
| Axud1 | 1 | inactive |
| mRpS6 | 1 | inactive |
| Kif3C | 1 | inactive |
| Kif3C | 2 | inactive |
| lab | 1 | inactive |
| Gr47b | 1 | inactive |
| CG14756 | 1 | inactive |
| CG30183 | 1 | inactive |
| CG30183 | 2 | inactive |
| CG7149 | 1 | inactive |
| PIG-S | 1 | inactive |
| PIG-S | 2 | inactive |
| PIG-S | 3 | inactive |
| mRpS28 | 1 | inactive |
| CG13284 | 1 | inactive |
| Mfap1 | 1 | inactive |
| CG8929 | 1 | inactive |
| CG8929 | 2 | inactive |
| stas | 1 | inactive |
| CG2256 | 1 | inactive |
| CG6912 | 1 | inactive |
| CG18765 | 1 | inactive |
| ND-13B | 1 | inactive |
| CG3526 | 1 | inactive |
| CG3526 | 2 | inactive |
| CG10793 | 1 | inactive |

Called active, of those listed so far:
| target gene | reagent | outcome |
| --- | --- | --- |
| Prosbeta1 | 1 | active |
| Polr3D | 1 | active |
| DnaJ-1 | 1 | active |
